These are yes or no findings as the source states them, for the method shown. Some entries that bind do so weakly or less than the wild type. For some assays here: Sequences can lack the tags named with a protein.
B1: calpain-6 (279–523), clone isolated from the yeast two-hybrid screen (domain or fragment, UniProt Q9Y6Q1 279-523)
chain: MVRLRNPLGRQEWSGPWSEISEEWQQLTASDRKNLGLVMSDDGEFWMSLEDFCRNFHKLNVCRNVNNPIFGRKELESVLGCWTVDDDPLMNRSGGCYNNRDTFLQNPQYIFTVPEDGHKVIMSLQQKDLRTYRRMGRPDNYIIGFELFKVEMNRKFRLHHLYIQERAGTSTYIDTRTVFLSKYLKKGNYVLVPTMFQHGRTSEFLLRIFSEVPVQLRELTLDMPKMSCWNLARGYPKVVTQITVH
B2: full-length calpain-6 (1–641), pB42AD fusion (protein, UniProt Q9Y6Q1 1-641)
chain: MGPPLKLFKNQKYQELKQECIKDSRLFCDPTFLPENDSLFYNRLLPGKVVWKRPQDICDDPHLIVGNISNHQLTQGRLGHKPMVSAFSCLAVQESHWTKTIPNHKEQEWDPQKTEKYAGIFHFRFWHFGEWTEVVIDDLLPTINGDLVFSFSTSMNEFWNALLEKAYAKLLGCYEALDGLTITDIIVDFTGTLAETVDMQKGRYTELVEEKYKLFGELYKTFTKGGLICCSIESPNQEEQEVETDWGLLKGHTYTMTDIRKIRLGERLVEVFSAEKVYMVRLRNPLGRQEWSGPWSEISEEWQQLTASDRKNLGLVMSDDGEFWMSLEDFCRNFHKLNVCRNVNNPIFGRKELESVLGCWTVDDDPLMNRSGGCYNNRDTFLQNPQYIFTVPEDGHKVIMSLQQKDLRTYRRMGRPDNYIIGFELFKVEMNRKFRLHHLYIQERAGTSTYIDTRTVFLSKYLKKGNYVLVPTMFQHGRTSEFLLRIFSEVPVQLRELTLDMPKMSCWNLARGYPKVVTQITVHSAEDLEKKYANETVNPYLVIKCGKEEVRSPVQKNTVHAIFDTQAIFYRRTTDIPIIVQVWNSRKFCDQFLGQVTLDADPSDCRDLKSLYLRKKGGPTAKVKQGHISFKVISSDDLTEL
B3: calpain-6 domain III (Gly321–Asp500), two-hybrid fusion (domain or fragment, UniProt Q9Y6Q1 321-500)
chain: GEFWMSLEDFCRNFHKLNVCRNVNNPIFGRKELESVLGCWTVDDDPLMNRSGGCYNNRDTFLQNPQYIFTVPEDGHKVIMSLQQKDLRTYRRMGRPDNYIIGFELFKVEMNRKFRLHHLYIQERAGTSTYIDTRTVFLSKYLKKGNYVLVPTMFQHGRTSEFLLRIFSEVPVQLRELTLD

What was measured:
[1] = target: full-length VEGFA (Met1–Arg147), pGilda (LexA) fusion (human) (UniProt P15692); test: two-hybrid; library screen, Matchmaker LexA system in EGY48 yeast; VEGFA bait in pGilda, human embryonic ovary cDNA library as prey in pB42AD
[2] = target: full-length VEGFA (Met1–Arg147), pGilda (LexA) fusion (human) (UniProt P15692); test: two-hybrid; Matchmaker LexA system, bait and prey vectors co-transformed in EGY48 yeast; growth for 3 days at 30 °C on leucine-depleted medium, blue colonies on X-gal, ONPG β-galactosidase activity
[3] = target: C-terminal VEGFA (Asn101–Arg147), two-hybrid fusion (human) (UniProt P15692); test: as above

Binder | binding [1] | binding [2] | binding [3]
B1 | binds | – | –
B2 | – | binds | binds
B3 | – | binds | binds

Source: publication PMC6823460
